Among the data in patent publication US9751945 are binding values, retold here.

The chains behind the UniProt entries cited, without tags or fusion partners. Where a name states a change or a piece, a line headed by the entry shows the natural chain unless it says otherwise.
UniProt P14434: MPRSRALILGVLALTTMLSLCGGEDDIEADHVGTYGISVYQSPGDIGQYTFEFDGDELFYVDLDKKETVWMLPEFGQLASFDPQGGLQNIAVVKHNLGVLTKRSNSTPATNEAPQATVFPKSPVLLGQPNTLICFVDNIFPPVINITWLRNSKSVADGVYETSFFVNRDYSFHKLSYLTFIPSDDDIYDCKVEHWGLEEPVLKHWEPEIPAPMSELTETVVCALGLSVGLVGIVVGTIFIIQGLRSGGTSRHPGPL
UniProt P14483: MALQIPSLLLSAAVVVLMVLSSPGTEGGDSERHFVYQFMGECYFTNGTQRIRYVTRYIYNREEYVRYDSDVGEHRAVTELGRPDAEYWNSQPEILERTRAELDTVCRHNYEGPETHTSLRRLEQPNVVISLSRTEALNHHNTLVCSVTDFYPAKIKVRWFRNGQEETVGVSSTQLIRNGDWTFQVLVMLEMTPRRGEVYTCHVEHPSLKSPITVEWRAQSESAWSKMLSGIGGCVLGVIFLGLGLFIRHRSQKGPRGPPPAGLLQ

This assay has as its target murine MHC class II (MHCII) complex (murine) (UniProt P14434+P14483). Kind of assay: flow cytometry of murine splenocytes costained with fluorophore-sortagged VHH7 and anti-CD3 or anti-B220.

Results are given in words; binding and its absence hold for the method and conditions named. Some results given as binding are weak or reduced against the parent protein; the word gives no strength. Tags and fused reporters may be left off the sequences shown.

B1: Sortaggable VHH7 polypeptide lacking a hinge region, fluorophore-sortagged (VHH)
VHH: QVQLQESGGGLVQAGDSLRLSCAASGRTFSRGVMGWFRRAPGKEREFVAIFSGSSWSGRSTYYSDSVKGRFTISRDNAKNTVYLQMNGLKPEDTAVYYCAAGYPEAYSAYGRESTYDYWGQGTQVTVSS
In the case of B1, the binding result is given as “binds”.
